In patent publication US20080160163A1, “Reduction of Digestibility of Phosphorus” (BAYER HEALTHCARE AG, priority 2005, published 2008):

Test system: adult healthy domestic cats
Settings: even at 4 g per 150 g of the feed
From the text: Fifteen adult healthy domestic cats of both genders were individually fed with commercially available regular canned diet (Premium Pate rich in lamb, IAMS Pet Food GmbH & Co containing 0.26% of phosphorus corresponding to 1.13% phosphorus in the dry matter). The aim of the study was to assess the palatability and safety of lanthanum carbonate octahydrate especially in high doses. Therefore 10 cats were fed lanthanum carbonate octahydrate in their daily feed ration at increasing doses. The study began with a dose level of about 12-15 g per kg of feed (dry matter). The dose was doubled every two weeks up to a dose level of about 96-120 g per kg of feed (dry matter). Five cats were given the feed without any lanthanum carbonate octahydrate and served as controls.
Palatability was assessed daily by observing the general acceptance of the feed. Tolerability and safety were assessed by measuring the blood serum phosphate levels and body weight at regular intervals as well as by daily observations concerning the health status and the possible occurrence of adverse events.

How did the “acceptance of the diet” value turn out when `O.O.O.O.O.O.O.O.O=C([O-])[O-].O=C([O-])[O-].O=C([O-])[O-].[La+3].[La+3]` [lanthanum carbonate octahydrate] was run?
Its value is 100%.
